# Experimental data reported in PMC7819943, “Rice protein-binding microarrays: a tool to detect cis-acting elements near promoter regions in rice”.
# Chains of the proteins cited; added tags and fusions are not shown.
# UniProt Q0JBA9, entry or part of it: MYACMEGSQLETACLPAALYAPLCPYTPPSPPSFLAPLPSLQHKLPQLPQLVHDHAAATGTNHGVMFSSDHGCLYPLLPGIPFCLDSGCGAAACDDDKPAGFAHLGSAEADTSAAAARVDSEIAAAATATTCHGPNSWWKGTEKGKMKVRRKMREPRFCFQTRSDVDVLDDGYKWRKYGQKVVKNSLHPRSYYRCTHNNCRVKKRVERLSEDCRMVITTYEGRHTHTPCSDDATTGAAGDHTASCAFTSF
# The other results are listed elsewhere or left out.
# Target: OsWRKY34 (Oryza sativa, UniProt Q0JBA9 1-250)
# Assay: protein-binding microarray (RPBM); PBS, 2% BSA, 51.3 ng/ul salmon testes DNA, 50 uM zinc acetate, 200 nM TF, 25 C, 1 h; high values mean tight binding
# Conditions: protein: recombinant; tags: N-terminal polyhistidine and DsRed monomer fusion (pET32a); label: CyDye5-dUTP incorporated in the synthesized complementary strand; 3' TTTTT single-stranded linker to array surface; dsDNA, one strand shown
# In short: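 Ni–NTA purification followed expression in E. coli BL21-CodonPlus of transcription factors fused N-terminally to a polyhistidine tag and DsRed. At 200 nM in PBS with 2% BSA, salmon testes DNA and 50 µM zinc acetate, the protein was incubated for 1 h at 25 °C with a custom Agilent array that had been primer-extended with Cy5-dUTP and blocked with 2% BSA. After washing, the array was read on an Axon 4000B scanner. The binding signal is per-feature fluorescence intensity in arbitrary units.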
row,Sequence,binding signal
1,GTACGCCCGCATTAGCTATGCGCTCATCTACGACATCCAGCGGAGTCACCTAGTGCAG,9000 fluorescence intensity (a.u.)
2,TCTTGTGTACGTTGTGTGTTGTCATTGTGTGTCTGTCTTACGGAGTCACCTAGTGCAG,17200 fluorescence intensity (a.u.)
3,CCACTACTGCCCTTGCTTGACTCGTTTGGTTGGTTGCCTACGGAGTCACCTAGTGCAG,10200 fluorescence intensity (a.u.)
4,GGTTTTGGAGGACGGTTTCTCTAAGATGGCGGTGTTGACCCGGAGTCACCTAGTGCAG,9560 fluorescence intensity (a.u.)
5,GCTCACGTTGACCTGCCTTAGGCCACCGTTCTCACCGGCTCGGAGTCACCTAGTGCAG,8030 fluorescence intensity (a.u.)
6,GGTGACCTCGTGGCAAGCAAACTTAACTACCACATGAGAGCGGAGTCACCTAGTGCAG,8550 fluorescence intensity (a.u.)
7,TATACAATACAGCTCTGTCCCAACTTCCGATACATACATACGGAGTCACCTAGTGCAG,9770 fluorescence intensity (a.u.)
8,CCCGGGTCGGGGTCGGGGTCCGGGGTCGGGGTCCCCAACTCGGAGTCACCTAGTGCAG,13000 fluorescence intensity (a.u.)
9,CATCATGTCTGTCCATGTTCTCTGTACTAGAATGTGTCATCGGAGTCACCTAGTGCAG,10300 fluorescence intensity (a.u.)
10,GTGCACACATATGCAAAAATGCCATCCATTCATCCCAGTGCGGAGTCACCTAGTGCAG,8870 fluorescence intensity (a.u.)
11,GCTTCTCTTCATTCATTCTTTGACTTCTTCTCCTAATTTACGGAGTCACCTAGTGCAG,11800 fluorescence intensity (a.u.)
12,GTAGATGATGGTCATGTGTTATTTTTGTTGTTGTATTGTACGGAGTCACCTAGTGCAG,11900 fluorescence intensity (a.u.)
13,ACCTGTCATCCACATCACCGCAATTCATTCTGACACCTGGCGGAGTCACCTAGTGCAG,10300 fluorescence intensity (a.u.)
14,TATTTTTCCTATGTTTTACAATCCTCTGTTTTACACTCGTCGGAGTCACCTAGTGCAG,8860 fluorescence intensity (a.u.)
15,CGCTGTATTTTTCCTCCTCCCTTCATCGGTCTTCATATTACGGAGTCACCTAGTGCAG,8810 fluorescence intensity (a.u.)
16,GTGTCCAACTTTAACTGTCCGTCTTATATGAAATTTTTTTCGGAGTCACCTAGTGCAG,10200 fluorescence intensity (a.u.)
17,CCATTGTTTTCTTCTTGTCCTTTTAGAGATGTTGGGTACACGGAGTCACCTAGTGCAG,8240 fluorescence intensity (a.u.)
18,CGCGAACGACGTACACCATCCGATCGATCCATCAAACCAGCGGAGTCACCTAGTGCAG,8190 fluorescence intensity (a.u.)
19,TACATATATACTCCCTCCGTGTACTTCTCTAAAACCCAACCGGAGTCACCTAGTGCAG,8630 fluorescence intensity (a.u.)
20,GTTTCACACTCATTCACCTCGTTTGATTGCACATTATGTCCGGAGTCACCTAGTGCAG,8300 fluorescence intensity (a.u.)
21,CACTCGCACCCATCTCATCACCGAGTCACCGGCACCGGTCCGGAGTCACCTAGTGCAG,11800 fluorescence intensity (a.u.)

row,Sequence,binding signal
1,GAGACTACCTTGTGCACTGCATTTCGAGTTTTTACCTGACCGGAGTCACCTAGTGCAG,10500 fluorescence intensity (a.u.)
2,CCCTAGAACCCACTCTGCCCGCGCCCGGAGAAACCCTAGCCGGAGTCACCTAGTGCAG,8070 fluorescence intensity (a.u.)
3,AATTTATCCATACCATTTTTCTTGTTTTAAAATTCGAATACGGAGTCACCTAGTGCAG,9750 fluorescence intensity (a.u.)
4,ACTAACTTAGCTAGCGTGACAACTGGCACGCTCATTTTCTCGGAGTCACCTAGTGCAG,9180 fluorescence intensity (a.u.)
5,TGGGAGTACTACACTGCACTGCATCGCGCAACCAACCAACCGGAGTCACCTAGTGCAG,8540 fluorescence intensity (a.u.)
6,GTTTATTTTTCAGCCTTTACTTTTAGATTGCTAAGAACACCGGAGTCACCTAGTGCAG,9770 fluorescence intensity (a.u.)
7,ACCACTGCACGGCCGCTCACCCACGTCAACGTTTAACCTGCGGAGTCACCTAGTGCAG,9460 fluorescence intensity (a.u.)
8,AGTTTTGGGGTGAATTCAATTGAGGTTGCTACAGTTTAATCGGAGTCACCTAGTGCAG,8760 fluorescence intensity (a.u.)
9,CATACGGCCCATATGCTGGCCTTGTTGACATATTGCGACTCGGAGTCACCTAGTGCAG,11400 fluorescence intensity (a.u.)
10,CATTACGTCACACCTCATTCAGAAATTTCCATCTTCTTAACGGAGTCACCTAGTGCAG,11900 fluorescence intensity (a.u.)
11,ATGCCGCTATCACCACTAGTATACACGTAAAATATCTGTCCGGAGTCACCTAGTGCAG,10800 fluorescence intensity (a.u.)
12,TGCTATGCCAGCTATCCTAATGTCACTTATTCATGAAAACCGGAGTCACCTAGTGCAG,8480 fluorescence intensity (a.u.)
13,ACCTTTTTCATCCAGTTCCATCATCGAGGACCGTCATTTGCGGAGTCACCTAGTGCAG,8600 fluorescence intensity (a.u.)
14,TTCTATCCCGCGGGACAGGTATATTTTTGCAAAATTTTCCCGGAGTCACCTAGTGCAG,9040 fluorescence intensity (a.u.)
15,TCCCCGCCTGTTGCCGGCCACCACCCGGTCCATTCTACGACGGAGTCACCTAGTGCAG,9100 fluorescence intensity (a.u.)
16,GAAGCGGGGATCGGGGTCTAGGGAGAGAAAGAGAGACAGCCGGAGTCACCTAGTGCAG,9730 fluorescence intensity (a.u.)
17,GAGTCGTTACACTTATCTATTTAGTTTTCTGTTTGCTACACGGAGTCACCTAGTGCAG,12500 fluorescence intensity (a.u.)
18,TTTTCAGCGTGTGCATCACATGGTCCGTATCTTTAATACTCGGAGTCACCTAGTGCAG,8520 fluorescence intensity (a.u.)
19,GCGCATCCGAGCACGCATACTTTCGATCGGCGACTACGTCCGGAGTCACCTAGTGCAG,8810 fluorescence intensity (a.u.)
20,CATTTATTTTATTGTGACTTGATTCATCATCAAATGTTCTCGGAGTCACCTAGTGCAG,8870 fluorescence intensity (a.u.)
21,GGCTACCTTGATATTGTTTCTTAGTTTTTCATACTGAATTCGGAGTCACCTAGTGCAG,8330 fluorescence intensity (a.u.)

# Looked up one by one from the entries so far, two records:
row,Sequence,binding signal
17,GAGTCGTTACACTTATCTATTTAGTTTTCTGTTTGCTACACGGAGTCACCTAGTGCAG,12500 fluorescence intensity (a.u.)
13,ACCTTTTTCATCCAGTTCCATCATCGAGGACCGTCATTTGCGGAGTCACCTAGTGCAG,8600 fluorescence intensity (a.u.)
